In patent US7220822B2, “CD28 mimetics for blocking T cell mediated immune reactions” (The Ohio State University, priority 2000, dated 2007):
At least one compound was matched to its structure with a doubt left. Some results were stated once for a whole list of compounds, not compound by compound. Square brackets hold non-standard residues; d marks the D form. Peptide text beside a SMILES is read from it.

Sequences of proteins named here, by UniProt entry; tags and fusion partners are left off. Residues count along the entry.
UniProt P33681, 35-242 limits assumed: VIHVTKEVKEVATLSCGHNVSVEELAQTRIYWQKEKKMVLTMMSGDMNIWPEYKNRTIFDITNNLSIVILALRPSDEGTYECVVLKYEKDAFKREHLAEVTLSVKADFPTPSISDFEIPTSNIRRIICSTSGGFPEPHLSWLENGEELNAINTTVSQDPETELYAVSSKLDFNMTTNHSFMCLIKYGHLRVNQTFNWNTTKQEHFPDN

Assays:
[1] = biological target: T1, CD80-Ig (Homo sapiens, UniProt P33681); assay: Direct kinetic analysis of CD28 peptide binding to immobilized CD80-Ig by surface plasmon resonance (BIACORE); settings: for time to reach equilibrium binding: SPR injection phase; for time of dissociation in the washing phase: SPR washing phase
T1 construct: extracellular domain of CD80 fused with the constant region of mouse IgG1 heavy chain
Method: Binding experiments were performed by surface plasmon resonance (SPR) on an instrument sold under the trademark BIACORE™ from Pharmacia Biosensor (Uppasala, Sweden).
CD80-Ig (extracellular domain of CD80 fused with the constant region of mouse IgG1 heavy chain) at 35 μg/ml in 10 mM sodium acetate buffer, pH 4.2, was coupled to a research grade CM 5 sensor chip using a standard amine coupling procedure with the following modifications (38). To reduce the immobilization level of the ligand, the surface was activated for 3 (instead of 7) minutes with N-hydroxysuccinamide and […]. […] Following coupling, noncovalently bound ligand was removed by washing twice with 5 mM NaOH.
The analytes were also injected at the same concentration and injection times over an empty flow cell with nothing immobilized.
Data analysis was performed with BIAEVALUATION™ software version 2.1(Pharmacia Biosensor AB). […] Prior to kinetic analysis, data were adjusted to zero baseline level by subtracting the background responses obtained by injection of the analytes through a control flow cell with no ligand immobilized. First, the dissociation rate constant, kd, (units: s^−1) was determined, by fitting experimental data from the buffer flow part of the sensogram to the equation R(t)=R1*e^−kd*(t^0^−t^1^) (1) where t0 is the injection time, R1 is the response level at the start of dissociation time t1 and kd is the dissociation rate constant.
The kd value obtained was used as a constant during the analysis of the injection phase data. Binding data above the noise level was selected by converting the sensogram to a plot of the logarithm of the binding rate vs time (dR/dt vs. time). The ka was determined by nonlinear curve fitting of the following equation R(t)=Req*{1−e^−(k^a^*C+k^d^)*(t) (2) where R(t) is the response at time t, Req is the steady state response level, ka is the association rate constant (units: M^−1s^−1), kd is the dissociation rate constant and C is the concentration of the injected peptide analyte. An offset was added to account for the refractive index differences between the analyte and the running buffer.
After analyzing sensograms obtained from injections of increasing concentrations of peptide analytes or CD28-Ig, the experimental data was analyzed using the BIAsimulation software 2.1. A plot of the logarithm of (dR/dt) against time was calculated from the sensograms, and then the slopes at different concentrations were plotted against the concentrations of the peptide analyte. Different angles obtained of the linear lines represent the variation of affinities, which gives the association rate constant (ka) from the equation ln dR/dt=ln(kaCR max)−KaC+kd)t (4) where dR/dt is the rate of change of the SPR signal, C is the concentration of the analyte, Rmax is the maximum analyte binding capacity in RU and R is the SPR signal in RU at time t. The dissociation rate constant is obtained from the equation Kd=kd/ka (5)

[2] = biological target: T1, CD80-Ig; assay: Competitive kinetic analysis (SPR): CD28 peptides versus CD28-Ig for binding indirectly immobilized CD80-Ig
Method: Competitive kinetic analysis was performed as described previously using purified anti-mouse IgG1 Fc (31437zz) (Pierce City, Ill., USA) to indirectly immobilize CD80-Ig (39). […] The binding kinetics of CD28-Ig was assessed by injecting a range of CD28-Ig concentration (187 nM to 12 μM) over immobilized CD80-Ig (324 RU) for 5 min at 10 μl/min. CD80-Ig was regenerated using a 3 min injection of 5 mM NaOH. For competitive kinetic analysis, 100 μl of a 3.2 μM CD28-Ig solution was mixed with 100 μl of EL CD28 or RI CD28 peptides (6.18 μM to 503 μM in HBS-EP) and injected over the surface of CD80-Ig as secondary analyte for 5 min with a flow rate of 10 μl/min. The CD80-Ig surface was regenerated between injections by washing for 3 min with 5 mM NaOH. The mixtures were also injected on an empty flow cell with no protein immobilized, as a control.
In competitive kinetic experiments, the observed response R is the sum of the contributions of R1 and R2 from the two analytes. The binding data was analyzed using the equation R(t)=R1 (CD28-Ig)+R2 (CD28-P) (3) where • R1=Rmaxka1C1/kf−ks{k1(kf−ks)/kf*ks+k1−kf/kf*e^−kf^(t−t0)−k1ks/ks*e^−ks(t−t0)} • R2=RmaxMW1ka2C2/MW2*kf−ks[{k2(kf−ks)}/kf*ks}+(k2−kf/kf)*e^−kf^(t−t0)−(k2−ks/ks)*e^−ks(t−t0) • kf=0.5{ktq+k2+π(ka1−k2)^2+4kf1kCD28PC1C2} • ks=0.5{kt1+k2−π(kt1−k2)^2+4k1k2C1C2} • kt CD28-Ig=ka1C+kd1 • kt2=ka2C2+kd2
When competitive data were analyzed, ka, kd and Rmax values obtained for the interaction between CD80-Ig and CD28-Ig were used as non floating parameters and the rate constants for CD28 peptides were calculated from the injection phase data using the expanded equation 3.
FIGS. 4a and 4b are representative sensograms obtained from the competitive experiments using the CD28-Ig and ELCD28 and RICD28 APR respectively. The top curve is the interaction of CD28-Ig (3.2 μM) alone with the CD80-Ig. The response level gradually goes down as the concentration of the specified CD28 peptide increases. […] However, the dissociation constant varied with varying concentration of EL CD28 peptide mimetic(Table 3).

SMILES | time to reach equilibrium binding [1] [s] | time of dissociation in the washing phase [1] [s] | Kd ([2]; competition with CD28-Ig 3.2 μM, peptide C 0.125 × 10^5 nM, read-out: Kd) [nM] | Kd ([2]; competition with CD28-Ig 3.2 μM, peptide C 0.25 × 10^5 nM, read-out: Kd) [nM] | Kd ([2]; competition with CD28-Ig 3.2 μM, peptide C 0.5 × 10^5 nM, read-out: Kd) [nM] | Kd ([2]; competition with CD28-Ig 3.2 μM, peptide C 1 × 10^5 nM, read-out: Kd) [nM] | Kd ([2]; competition with CD28-Ig 3.2 μM, peptide C 2 × 10^5 nM, read-out: Kd) [nM] | Kd ([2]; competition with CD28-Ig 3.2 μM, peptide C 3 × 10^5 nM, read-out: Kd) [nM] | Kd ([2]; competitive kinetic analysis, average over peptide concentrations, read-out: average dissociation constant for binding to CD80-Ig) [nM] | Kd ([1]; SPR, 37° C., peptide 375 nM to 18 μM over immobilized CD80-Ig) [nM]
CC[C@H](C)[C@H](NC(=O)[C@@H](NC(=O)CNC(=O)[C@H](CC(N)=O)NC(=O)[C@H](CO)NC(=O)[C@H](CCCNC(=N)N)NC(=O)[C@H](CCC(=O)O)NC(=O)[C@H](CC(N)=O)NC(=O)[C@H](CC(=O)O)NC(=O)[C@H](CC(C)C)NC(=O)[C@H](Cc1ccc(O)cc1)NC(=O)[C@@H]1CCCN1C(=O)[C@@H]1CCCN1C(=O)[C@@H]1CCCN1C(=O)[C@H](Cc1ccc(O)cc1)NC(=O)[C@H](CCSC)NC(=O)[C@H](Cc1ccccc1)NC(=O)[C@H](CCC(=O)O)NC(=O)[C@@H](NC(=O)[C@H](CCCCN)NC(C)=O)[C@@H](C)CC)[C@@H](C)O)C(N)=O [EL CD28] (Ac-KIEFMYPPPYLDNERSNGTI-NH2) | 12 to 20 | 10 to 12 |  |  |  |  |  |  |  | 
CC[C@@H](C)[C@@H](NC(C)=O)C(=O)N[C@@H](C(=O)NCC(=O)N[C@H](CC(N)=O)C(=O)N[C@H](CO)C(=O)N[C@H](CCCNC(=N)N)C(=O)N[C@H](CCC(=O)O)C(=O)N[C@H](CC(N)=O)C(=O)N[C@H](CC(=O)O)C(=O)N[C@H](CC(C)C)C(=O)N[C@H](Cc1ccc(O)cc1)C(=O)N1CCC[C@@H]1C(=O)N1CCC[C@@H]1C(=O)N1CCC[C@@H]1C(=O)N[C@H](Cc1ccc(O)cc1)C(=O)N[C@H](CCSC)C(=O)N[C@H](Cc1ccccc1)C(=O)N[C@H](CCC(=O)O)C(=O)N[C@@H](C(=O)N[C@H](CCCCN)C(N)=O)[C@H](C)CC)[C@H](C)O [RI CD28] (Ac-[dI][dT]G[dN][dS][dR][dE][dN][dD][dL][dY][dP][dP][dP][dY][dM][dF][dE][dI][dK]-NH2) | 12 to 20 | 10 to 12 | 1690 | 1360 | 2980 | 1500 | 1040 | 1930 | 1750 | 2530
